The supplement of paper PMC12067093, “Discovery and optimisation of a covalent ligand for TRIM25 and its application to targeted protein ubiquitination” (Chemical Science, 2025)
Some of the results follow.

Compound: Cc1cc(ccc1-c1ccccc1)C(=O)N1CCCN(CC1)C(=O)CCl [compound 10]
Experiment: probe-labelled cysteine peptide fold change vs DMSO (competition) (log2 fold change); higher = less target engagement (more negative = stronger competition)
Settings: THP-1, incubation time: 4 h
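Further: competitive profiling in live THP-1 cells: cysteine peptides tagged with an iodoacetamide desthiobiotin (IA-DTB) probe, intensity after compound treatment relative to DMSO-treated cells.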

Target	probe-labelled cysteine peptide fold change (10 µM)	probe-labelled cysteine peptide fold change (50 µM)
FUBP3_Q96I24_109_IQAESGCK (UniProt Q96I24)	0.37	0.0876
FKBP5_Q13451_340_AVECCDK (UniProt Q13451)	-0.225	-0.444
FLNB_O75369_450+455_SPFVVQVGEACNPNACR (UniProt O75369)	-0.278	-0.235
GAK_O14976_599_SGCRPFCEVYVGDER (UniProt O14976)	-0.133	-0.425
FLII_Q13045_933+938_LPEEEFGHFYTQDCYVFLCR (UniProt Q13045)	0.0227	-0.157
FUT8_Q9BYC5_266_YATGGWETVFRPVSETCTDR (UniProt Q9BYC5)	0.295	0.323
FTSJ1_Q9UET6_238_IIVPFVTCGDLSSYDSDR (UniProt Q9UET6)	-0.00709	0.281
FLAD1_Q8NFF5_338_LTLDSEEEGPLEECLAYLTAR (UniProt Q8NFF5)	-0.0485	0.177
FSCN1_Q16658_121_LSCFAQTVSPAEK (UniProt Q16658)	0.146	0.227
FKBP3_Q00688_133_KGDVVHCWYTGTLQDGTVFDTNIQTSAKK (UniProt Q00688)	0.0149	-0.278
FHL1_Q13642_150+153_GEDFYCVTCHETK (UniProt Q13642)	-0.0207	-0.408
FSCN1_Q16658_334_NASCYFDIEWR (UniProt Q16658)	0.0575	0.117
FRY_Q5TBA9_2404_LVHVLSLCGQEVGLSK (UniProt Q5TBA9)	-0.301	-0.0537
GABPA_Q06546_338_DCISWVGDEGEFK (UniProt Q06546)	0.0643	0.0327
FN1_P02751_470_FGFCPMAAHEEICTTNEGVMYR (UniProt P02751)	-0.00116	-0.399
FKBP8_Q14318_227_ECGNAHYQR (UniProt Q14318)	0.121	-0.0275
FUCA2_Q9BTY2_455_LLGHGQPLNWISLEQNGIMVELPQLTIHQMPCK (UniProt Q9BTY2)	0.939	-0.246
FTO_Q9C0B1_136_HTEAEIAAACETFLK (UniProt Q9C0B1)	0.103	0.222
FNDC3A_Q9Y2H6_762_CDITTAPGPPDQCKPPQVTCR (UniProt Q9Y2H6)	0.0405	0.0336

Target	probe-labelled cysteine peptide fold change (10 µM)	probe-labelled cysteine peptide fold change (50 µM)
FKBP1A_P62942_23_RGQTCVVHYTGMLEDGKK (UniProt P62942)	0.182	-0.301
FNBP1_Q96RU3_609_NEDEEGYVPTSYVEVCLDK (UniProt Q96RU3)	-0.0969	-0.015
FHL1_Q13642_10_FDCHYCR (UniProt Q13642)	0.039	-0.319
FHL2_Q14192_251_QWHNDCFNCK (UniProt Q14192)	0.117	-0.13
FTSJ1_Q9UET6_295_EIRPQDCPISR (UniProt Q9UET6)	-0.22	-0.263
FSCN1_Q16658_226_VAFRDCEGR (UniProt Q16658)	-0.244	-0.563
FOCAD_Q5VW36_1559_CLLEMTDDDANR (UniProt Q5VW36)	0.125	0.407
FRMD8_Q9BZ67_191_VQLGPYQPGRPAACDLR (UniProt Q9BZ67)	-0.218	-0.432
FKBP5_Q13451_103+107_KGEICHLLCKPEYAYGSAGSLPK (UniProt Q13451)	0.152	-0.126
GABPA_Q06546_61_LQCSLDAHEICLQDIQLDPER (UniProt Q06546)	0.155	-0.21
FRYL_O94915_1575_VMEHNQGEPLPFPPAGGCWSPLVDYVPETSSPGLPLHR (UniProt O94915)	0.235	0.578
FLNB_O75369_416_CVYKPMQPGPHVVK (UniProt O75369)	0.0164	-0.502
FOXP1_Q9H334_317_WPGCEAVCEDFQSFLK (UniProt Q9H334)	-0.0195	0.436
GABPA_Q06546_388_YYYDGDMICK (UniProt Q06546)	-0.0643	-0.0421
FHL2_Q14192_7_FDCHHCNESLFGK (UniProt Q14192)	0.161	0.103
FTH1_P02794_131_NDPHLCDFIETHYLNEQVK (UniProt P02794)	0.709	0.714
GAK_O14976_87_AIIQEVCFMK (UniProt O14976)	-0.161	-0.931
FLNB_O75369_769_ANEPTHFTVDCTEAGEGDVSVGIK (UniProt O75369)	-0.0149	0.114
GAK_O14976_560_YIEYMCDMVAEEPITPHSKPILVR (UniProt O14976)	-0.0324	-0.231
